Reference: the supplement of paper PMC10735217
Counter-ions that a name gives are not always drawn. This is one part of the list. Repeats in this data set agree poorly, so a single value says little.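 The human kidney-derived cells carry a stably integrated construct of eight TEAD-binding elements driving luciferase, read by luminescence in a drug-repurposing library screen. A compound counts as a hit when its signal is more than five robust Z scores above the plate mean.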

System: HEK293A TEAD-LUC reporter
Experiment: TEAD-luciferase reporter activity (YAP activation), robust Z score vs plate; higher = stronger YAP/TEAD activation
Conditions: 24 h

Structure (SMILES) | TEAD-luciferase reporter activity (compound concentration: 200 nM) | TEAD-luciferase reporter activity (compound concentration: 2 uM) | TEAD-luciferase reporter activity (compound concentration: 10 uM)
COc1ccc(NC(=O)[C@H](CCCCN)NC(=O)c2cc(NC(=O)[C@H](CCCCN)NC(=O)c3cc(NC(=O)[C@H](CCCCN)NC(=O)c4cc(NC(=O)[C@@H](N)CCCCN)ccc4OC)ccc3OC)ccc2OC)cc1C(N)=O [delparantag] | inactive: -0.236 | inactive: -1.17 | inactive: 4.38
CC(=O)NC[C@H]1CN(c2ccc(N(C)S(C)(=O)=O)c(F)c2)C(=O)O1 | inactive: -1.56 | inactive: -1.03 | inactive: 0.202
CC(=O)OCC(=O)NCCCOc1cccc(CN2CCCCC2)c1 [roxatidine acetate HCl] | – | inactive: -0.296 | –
CC(=O)OCC(=O)NCCCOc1cccc(CN2CCCCC2)c1 [roxatidine acetate??hydrochloride] | inactive: 0.459 | – | inactive: -0.363
CC(=O)N[C@@H]1C[C@H](NC(C)(C)C)CC[C@@H]1N1CC[C@H](Nc2ncnc3cc(C(C)(C)C)nn23)C1=O | inactive: 0.732 | inactive: -0.503 | inactive: -0.285
CC(C[N+](C)(C)C)OC(N)=O (stereo unspecified) [Bethanechol chloride] | – | inactive: -0.83 | –
CC(C[N+](C)(C)C)OC(N)=O (stereo unspecified) [Urecholine] | inactive: -0.281 | – | inactive: -1.08
NC(=O)C1(N2CCCCC2)CCN(CCCC(=O)c2ccc(F)cc2)CC1 [Pipamperone] | inactive: 0.411 | inactive: -0.442 | inactive: -1.87
C=CCN1CCc2cc(O)c(O)cc2C(c2ccccc2)C1 (stereo unspecified) | inactive: -2.82 | inactive: -1.09 | inactive: 3.59
COc1cccc(N(CC(=O)N(C)c2ccccc2)C(=O)CNC(=O)Nc2cccc(C(C)C(=O)O)c2)c1 (stereo unspecified) | inactive: -0.799 | inactive: 2.33 | inactive: -1.24
COc1cc(S(C)(=O)=O)ccc1Nc1nc2ccc(-c3ccc(NC(=O)[C@H](C)c4ccc(F)cc4)cc3)cn2n1 | inactive: 0.306 | inactive: -1.09 | inactive: 0.554
C/C(O)=C/C(C)=N\CC/N=C(C)/C=C(\C)O [ligand of CTC-96] | – | inactive: 1.98 | –
C/C(O)=C/C(C)=N\CC/N=C(C)/C=C(\C)O | inactive: -0.565 | – | inactive: -1.16
Nc1ccn([C@@H]2CS[C@H](CO)O2)c(=O)n1 | inactive: -1.3 | – | inactive: -0.447
Nc1ccn([C@@H]2CS[C@H](CO)O2)c(=O)n1 [lamivudine] | – | inactive: -0.728 | –
CC(C)c1cc(-c2ccc(F)c3ccccc23)nc(N)n1 | inactive: 4.42 | inactive: -0.763 | inactive: -2.05

Two records drawn at random from the list so far, as already listed:
Structure (SMILES) | TEAD-luciferase reporter activity (compound concentration: 200 nM) | TEAD-luciferase reporter activity (compound concentration: 2 uM) | TEAD-luciferase reporter activity (compound concentration: 10 uM)
CC(=O)NC[C@H]1CN(c2ccc(N(C)S(C)(=O)=O)c(F)c2)C(=O)O1 | inactive: -1.56 | inactive: -1.03 | inactive: 0.202
CC(C)c1cc(-c2ccc(F)c3ccccc23)nc(N)n1 | inactive: 4.42 | inactive: -0.763 | inactive: -2.05
